The supplement of paper PMC10849652
This is one part of the list.

The chains behind the UniProt entries cited, without tags or fusion partners. Where a name states a change or a piece, a line headed by the entry shows the natural chain unless it says otherwise.
UniProt Q9NWW6: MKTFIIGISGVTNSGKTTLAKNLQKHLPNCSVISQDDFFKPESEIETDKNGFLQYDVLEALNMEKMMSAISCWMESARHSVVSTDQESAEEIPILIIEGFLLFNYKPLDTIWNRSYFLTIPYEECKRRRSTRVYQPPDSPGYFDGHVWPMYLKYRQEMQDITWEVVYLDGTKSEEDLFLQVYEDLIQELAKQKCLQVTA
UniProt P48645: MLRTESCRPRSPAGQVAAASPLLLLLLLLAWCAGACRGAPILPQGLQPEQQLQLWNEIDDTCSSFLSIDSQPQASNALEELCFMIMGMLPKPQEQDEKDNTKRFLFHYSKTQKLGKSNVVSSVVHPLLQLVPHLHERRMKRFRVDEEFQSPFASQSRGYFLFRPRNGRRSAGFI
UniProt Q8N5F7: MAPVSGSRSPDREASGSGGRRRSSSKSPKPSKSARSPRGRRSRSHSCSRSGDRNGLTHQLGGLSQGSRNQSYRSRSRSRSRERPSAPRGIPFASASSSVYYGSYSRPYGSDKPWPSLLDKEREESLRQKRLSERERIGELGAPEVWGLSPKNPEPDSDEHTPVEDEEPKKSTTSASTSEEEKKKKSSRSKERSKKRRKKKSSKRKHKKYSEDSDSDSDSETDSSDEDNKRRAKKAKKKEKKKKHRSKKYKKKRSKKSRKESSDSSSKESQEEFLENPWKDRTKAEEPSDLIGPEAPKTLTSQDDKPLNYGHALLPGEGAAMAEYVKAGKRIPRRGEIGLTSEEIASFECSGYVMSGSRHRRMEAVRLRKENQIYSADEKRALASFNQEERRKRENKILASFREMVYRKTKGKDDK
UniProt Q9NPE3: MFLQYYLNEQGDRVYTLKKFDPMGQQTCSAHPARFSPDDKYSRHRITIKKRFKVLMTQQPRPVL
UniProt P04150: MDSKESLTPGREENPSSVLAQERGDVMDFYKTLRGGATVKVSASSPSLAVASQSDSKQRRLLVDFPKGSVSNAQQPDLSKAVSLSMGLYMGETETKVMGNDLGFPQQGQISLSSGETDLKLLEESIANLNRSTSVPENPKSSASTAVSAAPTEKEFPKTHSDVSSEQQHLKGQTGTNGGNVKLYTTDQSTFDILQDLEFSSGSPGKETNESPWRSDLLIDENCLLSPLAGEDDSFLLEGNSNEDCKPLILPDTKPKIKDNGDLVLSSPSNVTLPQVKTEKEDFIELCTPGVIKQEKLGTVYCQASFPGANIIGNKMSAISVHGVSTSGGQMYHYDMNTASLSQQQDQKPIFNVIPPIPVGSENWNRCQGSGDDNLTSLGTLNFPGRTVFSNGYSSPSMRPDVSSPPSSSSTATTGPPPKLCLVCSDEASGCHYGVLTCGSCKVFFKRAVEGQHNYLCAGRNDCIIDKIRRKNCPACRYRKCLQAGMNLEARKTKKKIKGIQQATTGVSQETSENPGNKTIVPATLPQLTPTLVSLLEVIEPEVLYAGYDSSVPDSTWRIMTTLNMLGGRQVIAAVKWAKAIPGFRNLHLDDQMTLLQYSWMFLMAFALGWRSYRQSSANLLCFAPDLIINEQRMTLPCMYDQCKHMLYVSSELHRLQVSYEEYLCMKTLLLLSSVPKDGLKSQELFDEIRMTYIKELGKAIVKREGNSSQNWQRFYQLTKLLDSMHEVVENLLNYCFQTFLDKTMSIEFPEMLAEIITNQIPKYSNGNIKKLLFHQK
UniProt Q9GZP1: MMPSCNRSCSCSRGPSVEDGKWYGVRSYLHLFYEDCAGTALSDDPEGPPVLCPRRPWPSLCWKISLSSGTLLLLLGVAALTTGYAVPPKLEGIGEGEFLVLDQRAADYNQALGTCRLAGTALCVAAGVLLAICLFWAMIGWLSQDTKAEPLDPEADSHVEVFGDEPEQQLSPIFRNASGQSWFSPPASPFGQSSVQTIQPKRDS
UniProt Q12980: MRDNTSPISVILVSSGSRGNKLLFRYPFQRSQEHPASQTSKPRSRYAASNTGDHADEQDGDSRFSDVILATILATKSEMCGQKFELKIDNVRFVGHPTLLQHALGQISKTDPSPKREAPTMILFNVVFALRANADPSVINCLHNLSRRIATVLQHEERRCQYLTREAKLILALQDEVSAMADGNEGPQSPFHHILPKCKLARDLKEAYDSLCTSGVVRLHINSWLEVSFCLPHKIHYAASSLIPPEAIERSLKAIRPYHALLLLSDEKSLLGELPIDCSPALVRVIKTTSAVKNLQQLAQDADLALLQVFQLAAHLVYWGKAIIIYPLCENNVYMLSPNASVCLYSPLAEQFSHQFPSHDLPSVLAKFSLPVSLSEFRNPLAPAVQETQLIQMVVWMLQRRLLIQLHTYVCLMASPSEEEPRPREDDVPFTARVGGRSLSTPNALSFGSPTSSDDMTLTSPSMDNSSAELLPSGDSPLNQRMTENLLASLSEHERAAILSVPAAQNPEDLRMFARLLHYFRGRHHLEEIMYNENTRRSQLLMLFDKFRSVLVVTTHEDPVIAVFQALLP
UniProt Q9UHC9: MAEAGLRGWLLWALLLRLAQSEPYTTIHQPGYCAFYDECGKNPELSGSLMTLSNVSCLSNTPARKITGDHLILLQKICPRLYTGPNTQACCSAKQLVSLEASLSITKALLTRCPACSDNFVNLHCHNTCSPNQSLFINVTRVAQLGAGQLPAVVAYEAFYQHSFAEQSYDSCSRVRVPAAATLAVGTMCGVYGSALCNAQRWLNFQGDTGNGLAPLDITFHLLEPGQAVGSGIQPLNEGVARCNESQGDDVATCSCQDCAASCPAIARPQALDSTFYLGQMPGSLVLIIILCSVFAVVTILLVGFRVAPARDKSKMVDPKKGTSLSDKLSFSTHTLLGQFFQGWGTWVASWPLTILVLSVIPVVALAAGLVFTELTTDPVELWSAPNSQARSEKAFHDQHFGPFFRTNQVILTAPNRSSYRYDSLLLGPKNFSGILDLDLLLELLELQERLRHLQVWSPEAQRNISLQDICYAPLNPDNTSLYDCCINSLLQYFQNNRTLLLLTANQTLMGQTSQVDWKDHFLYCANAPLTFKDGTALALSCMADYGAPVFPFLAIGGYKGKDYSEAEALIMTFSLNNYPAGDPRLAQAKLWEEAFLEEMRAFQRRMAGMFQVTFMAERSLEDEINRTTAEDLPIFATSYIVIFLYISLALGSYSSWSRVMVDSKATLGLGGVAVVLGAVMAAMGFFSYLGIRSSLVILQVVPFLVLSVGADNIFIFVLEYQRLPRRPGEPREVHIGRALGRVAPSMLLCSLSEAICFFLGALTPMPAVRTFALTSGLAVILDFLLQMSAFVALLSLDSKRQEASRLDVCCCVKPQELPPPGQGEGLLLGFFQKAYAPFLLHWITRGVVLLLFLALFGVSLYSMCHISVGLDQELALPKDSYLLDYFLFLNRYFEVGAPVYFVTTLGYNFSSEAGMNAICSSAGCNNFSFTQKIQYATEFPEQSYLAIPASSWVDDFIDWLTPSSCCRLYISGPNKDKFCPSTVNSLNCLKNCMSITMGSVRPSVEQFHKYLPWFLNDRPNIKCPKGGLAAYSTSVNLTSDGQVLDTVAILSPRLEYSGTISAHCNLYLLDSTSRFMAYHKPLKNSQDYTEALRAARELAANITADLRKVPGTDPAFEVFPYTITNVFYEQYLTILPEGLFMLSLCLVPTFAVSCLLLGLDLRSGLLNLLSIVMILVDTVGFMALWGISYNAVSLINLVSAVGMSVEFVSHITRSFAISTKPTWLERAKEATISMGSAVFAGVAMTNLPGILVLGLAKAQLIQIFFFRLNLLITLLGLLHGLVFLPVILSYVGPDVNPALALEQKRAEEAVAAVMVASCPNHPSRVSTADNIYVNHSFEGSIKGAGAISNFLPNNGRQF
UniProt P25963: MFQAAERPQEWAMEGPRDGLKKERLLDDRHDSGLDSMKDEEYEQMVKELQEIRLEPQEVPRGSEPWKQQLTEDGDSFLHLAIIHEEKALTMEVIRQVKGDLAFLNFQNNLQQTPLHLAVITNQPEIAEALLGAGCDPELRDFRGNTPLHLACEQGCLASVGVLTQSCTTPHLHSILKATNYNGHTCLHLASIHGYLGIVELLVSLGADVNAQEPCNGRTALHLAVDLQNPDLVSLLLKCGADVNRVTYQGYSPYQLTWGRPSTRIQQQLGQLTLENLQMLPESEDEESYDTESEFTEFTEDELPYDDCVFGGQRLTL
UniProt Q92859: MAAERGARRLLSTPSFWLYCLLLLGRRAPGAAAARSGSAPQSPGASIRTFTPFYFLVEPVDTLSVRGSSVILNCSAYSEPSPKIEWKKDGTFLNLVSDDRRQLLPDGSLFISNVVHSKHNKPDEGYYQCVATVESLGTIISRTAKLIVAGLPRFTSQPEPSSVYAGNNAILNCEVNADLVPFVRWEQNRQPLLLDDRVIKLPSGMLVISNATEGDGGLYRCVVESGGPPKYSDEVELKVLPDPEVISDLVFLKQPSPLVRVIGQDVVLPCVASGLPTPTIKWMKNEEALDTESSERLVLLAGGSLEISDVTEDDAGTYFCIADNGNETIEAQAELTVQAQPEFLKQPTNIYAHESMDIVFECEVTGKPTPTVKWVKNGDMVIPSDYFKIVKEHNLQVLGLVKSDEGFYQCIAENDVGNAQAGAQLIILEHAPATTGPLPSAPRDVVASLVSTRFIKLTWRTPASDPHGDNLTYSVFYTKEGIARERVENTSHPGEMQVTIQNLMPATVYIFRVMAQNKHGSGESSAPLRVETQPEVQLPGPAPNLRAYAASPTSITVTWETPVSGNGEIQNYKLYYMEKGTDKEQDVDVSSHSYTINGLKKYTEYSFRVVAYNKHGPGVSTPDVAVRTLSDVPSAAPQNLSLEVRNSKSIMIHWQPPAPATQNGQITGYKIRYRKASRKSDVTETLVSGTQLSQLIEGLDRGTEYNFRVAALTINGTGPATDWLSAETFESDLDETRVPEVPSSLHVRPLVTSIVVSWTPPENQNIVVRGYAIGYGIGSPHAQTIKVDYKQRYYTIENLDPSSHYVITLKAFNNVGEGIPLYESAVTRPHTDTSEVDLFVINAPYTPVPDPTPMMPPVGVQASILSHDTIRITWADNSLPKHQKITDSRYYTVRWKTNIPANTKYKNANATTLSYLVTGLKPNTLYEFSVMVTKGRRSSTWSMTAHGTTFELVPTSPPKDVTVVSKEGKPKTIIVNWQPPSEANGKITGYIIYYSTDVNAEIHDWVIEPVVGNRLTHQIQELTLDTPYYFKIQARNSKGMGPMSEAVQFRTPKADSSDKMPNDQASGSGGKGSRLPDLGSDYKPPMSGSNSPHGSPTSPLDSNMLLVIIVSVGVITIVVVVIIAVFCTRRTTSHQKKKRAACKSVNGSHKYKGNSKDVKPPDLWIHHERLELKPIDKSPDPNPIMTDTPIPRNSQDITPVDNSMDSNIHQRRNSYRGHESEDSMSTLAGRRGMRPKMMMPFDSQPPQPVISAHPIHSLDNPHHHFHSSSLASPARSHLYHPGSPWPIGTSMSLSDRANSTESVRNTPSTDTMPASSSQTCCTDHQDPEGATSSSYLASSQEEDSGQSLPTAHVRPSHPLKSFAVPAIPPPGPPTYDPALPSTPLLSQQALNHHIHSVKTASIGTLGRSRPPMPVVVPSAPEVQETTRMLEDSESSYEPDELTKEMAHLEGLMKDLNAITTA
UniProt O00746: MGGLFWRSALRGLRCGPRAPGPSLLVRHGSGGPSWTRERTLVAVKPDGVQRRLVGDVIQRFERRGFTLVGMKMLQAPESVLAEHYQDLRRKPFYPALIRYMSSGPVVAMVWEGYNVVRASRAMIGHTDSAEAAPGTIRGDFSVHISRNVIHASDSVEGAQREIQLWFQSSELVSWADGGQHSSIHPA
UniProt O75052: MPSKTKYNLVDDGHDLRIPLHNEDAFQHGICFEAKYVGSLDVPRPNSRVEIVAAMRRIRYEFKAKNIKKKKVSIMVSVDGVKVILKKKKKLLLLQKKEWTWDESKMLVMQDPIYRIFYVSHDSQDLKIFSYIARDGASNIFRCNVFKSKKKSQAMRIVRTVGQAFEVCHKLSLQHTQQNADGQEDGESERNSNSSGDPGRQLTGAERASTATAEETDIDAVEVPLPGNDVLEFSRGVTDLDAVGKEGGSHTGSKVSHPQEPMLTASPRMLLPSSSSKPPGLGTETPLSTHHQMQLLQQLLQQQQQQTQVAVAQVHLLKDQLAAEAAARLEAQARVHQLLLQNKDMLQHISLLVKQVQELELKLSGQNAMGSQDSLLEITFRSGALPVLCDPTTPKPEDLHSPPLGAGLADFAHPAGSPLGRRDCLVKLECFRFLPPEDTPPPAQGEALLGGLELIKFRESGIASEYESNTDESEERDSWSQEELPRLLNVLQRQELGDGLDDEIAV
UniProt Q8IXM6: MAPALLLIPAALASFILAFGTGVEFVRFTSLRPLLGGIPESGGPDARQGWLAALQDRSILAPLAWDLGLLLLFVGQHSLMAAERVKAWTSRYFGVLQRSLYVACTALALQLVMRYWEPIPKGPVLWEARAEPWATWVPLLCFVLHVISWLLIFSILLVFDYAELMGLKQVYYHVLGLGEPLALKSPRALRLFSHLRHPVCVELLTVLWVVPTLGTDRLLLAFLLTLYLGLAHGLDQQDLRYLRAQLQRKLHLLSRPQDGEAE

The targets below were run with CNc1nc(-c2ccc3c(N)n[nH]c3c2)cc(N2C[C@@H](C(=O)NC3CCCCC3)CC[C@H]2C)n1 (assay: log2 fold change, soluble protein after heating vs DMSO (PISA); higher = thermal stabilisation; K562 cells, 10 uM, 30 min; active = over 0.2 and 3.5 SD of the protein, either way, in both replicates (recomputed)).
Summary of the method: (§1)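 K562 cells at 2×10^6 cells/mL were exposed to 10 μM compound for 30 min, then aliquots were heated for 3 min across 48°C-58°C, pooled, and extracted in PBS containing 0.5% NP-40 at 4°C. The supernatant after 21,000xg for 90 min was taken as soluble protein and measured by TMTpro 16plex LC-MS/MS with channel sums equalised. Thermal stability is reported relative to control samples, with values from duplicates. Fold changes are given on a log2 scale.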

log2 fold change, inactive:
NMRK1 (UniProt Q9NWW6) -0.22
NMU (UniProt P48645) -0.09
NMNAT3 (UniProt Q96T66) -0.105
NKAP (UniProt Q8N5F7) 0.085
NOP10 (UniProt Q9NPE3) -0.189
NR3C1 isoform 3 (UniProt P04150) 0.045
NRSN2 (UniProt Q9GZP1) -0.123
NSD1 (UniProt Q96L73) 0.06
NPRL3 (UniProt Q12980) -0.036
NPC1L1 (UniProt Q9UHC9) -0.051
NFKBIA (UniProt P25963) 0.13
NOL8 (UniProt Q76FK4) -0.271
NELFCD (UniProt Q8IXH7) -0.002

These targets were tested with COC(=O)N[C@@H](C)CNc1nccc(-c2cn(C(C)C)nc2-c2cc(Cl)cc(NS(C)(=O)=O)c2F)n1 [encorafenib] in the same assay as above.
Summary of the method: as §1

log2 fold change, inactive:
NMU (UniProt P48645) 0.034
NFKB2 (UniProt Q00653) 0.023
NMNAT3 (UniProt Q96T66) -0.008
NKAP (UniProt Q8N5F7) 0.149
NEO1 (UniProt Q92859) -0.389
NME4 (UniProt O00746) 0.032
NR3C1 isoform 3 (UniProt P04150) -0.298
NSD1 (UniProt Q96L73) 0.044
NIPBL (UniProt Q6KC79) 0.133
NPC1L1 (UniProt Q9UHC9) -0.038
NME2P1 (UniProt O60361) 0.003
NFKBIA (UniProt P25963) 0.122
NOS1AP (UniProt O75052) 0.092
NFATC1 (UniProt O95644) 0.115
NOSTRIN isoform 4 (UniProt Q8IVI9) 0.278
NRM (UniProt Q8IXM6) 0

Each target was assayed with COC(=O)[C@H](CCSC)NC(=O)C1=C(C=C(C=C1)NC[C@H](CS)N)C2=CC=CC=C2 in the same assay as above.
Summary of the method: as §1

log2 fold change, inactive:
NMU (UniProt P48645) -0.042
NKAP (UniProt Q8N5F7) 0.039
NEO1 (UniProt Q92859) -0.005
NFIC isoform 6 (UniProt P08651) -0.186
NPC1L1 (UniProt Q9UHC9) 0.093
NETO2 (UniProt Q8NC67) 0.345
NME2P1 (UniProt O60361) -0.017
NFKBIA (UniProt P25963) -0.009
NELFCD (UniProt Q8IXH7) -0.085
NOS1AP (UniProt O75052) -0.074
NR2C1 (UniProt P13056) -0.082
NFATC1 (UniProt O95644) 0.108
NFE2L1 (UniProt Q14494) 0.094
NRM (UniProt Q8IXM6) 0.053
